Laboratory results as given in patent publication US10123533B2, “Nitrogen containing surfactants for agricultural use” (AKZO NOBEL CHEMICALS INTERNATIONAL B.V., priority 2009, dated 2018).
Some of these results come from one statement about several compounds together.

Experiment: Solubility tests of prior art betaines in concentrated glyphosate salt solutions
Type: physicochemical
Description: WO2000038523 (Huntsman, U.S. Pat. No. 6,500,784, U.S. Pat. No. 6,653,257, EP1139761) discloses an amphoteric surfactant with the structure RCONH(CH2)nN^+R^12CH2COO^− where R^1 is alkyl or hydroxyl alkyl group with C1 to C4 and n=2-4, and discloses a betaine with the structure R R^12N^+CH2COO^− where R^1 is alkyl or hydroxyl alkyl group with C1 to C4. The amphoterics disclosed there mainly functioned as a co-surfactant to solubilize a ether carboxylate in to concentrated glyphosate systems. In the context of the document, there was no mention of bioefficacy of betaines or other amphoteric surfactants by themselves. […] However, without proper testing of individual surfactant, it is not possible to determine whether the effect seen in the mixture of three surfactants comes from the claimed surfactant or the other two surfactants. Moreover, no actual bioefficacy data and especially no data are provided on the degree of “overall kill” provided in the absence of surfactants and in the presence of surfactants; without such data it is not possible to determine whether or not the claimed alkyl amido betaine was effective in enhancing herbicidal activity of glyphosate under the conditions of the test reported. This patent requires Na ion to be <0.035% for the glyphosate formulation to be stable. Moreover, it used only IPA-glyphosate as examples. […]

| Substance | amount of surfactant that could be dissolved (in a composition of 480 g ae/l potassium glyphosate) | amount of surfactant that could be dissolved (in a composition of 360 g ae/l di-ammonium glyphosate) |
| --- | --- | --- |
| coco dimethylamidopropyl betaine | < 5.4% | – |
| coco dimethyl betaine | – | < 5.4% |
